# Library screening results

Protein sequences, listed by entry. Tags and fused reporters are not part of them.
UniProt E9BF75, entry or part of it: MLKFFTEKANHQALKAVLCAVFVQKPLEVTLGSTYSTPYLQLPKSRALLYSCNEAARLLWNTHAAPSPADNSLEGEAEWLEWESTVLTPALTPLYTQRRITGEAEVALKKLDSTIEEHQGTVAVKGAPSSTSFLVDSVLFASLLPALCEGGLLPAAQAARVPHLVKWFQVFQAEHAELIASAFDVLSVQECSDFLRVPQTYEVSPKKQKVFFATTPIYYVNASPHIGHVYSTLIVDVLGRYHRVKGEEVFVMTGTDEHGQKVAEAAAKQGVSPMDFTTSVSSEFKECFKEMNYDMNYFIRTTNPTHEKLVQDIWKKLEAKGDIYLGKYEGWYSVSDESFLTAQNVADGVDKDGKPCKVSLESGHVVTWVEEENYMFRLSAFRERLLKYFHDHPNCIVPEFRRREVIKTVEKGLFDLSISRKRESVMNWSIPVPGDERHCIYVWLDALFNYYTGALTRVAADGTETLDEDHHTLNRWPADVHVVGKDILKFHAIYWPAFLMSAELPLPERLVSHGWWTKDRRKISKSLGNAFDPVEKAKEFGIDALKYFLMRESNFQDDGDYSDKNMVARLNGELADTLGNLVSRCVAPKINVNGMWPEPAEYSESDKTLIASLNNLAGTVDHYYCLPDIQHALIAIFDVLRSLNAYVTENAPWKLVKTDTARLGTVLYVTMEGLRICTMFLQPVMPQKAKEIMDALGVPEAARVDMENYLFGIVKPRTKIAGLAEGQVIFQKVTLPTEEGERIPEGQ

Results are percentages, as filed. The record does not define 0% and 100%; most values in the screen are far below 50% and negative numbers occur (in some assays of this library far below -100). Compounds were drawn at random from those tested, without regard to their results.

LdMetRS: 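Primary screen of methionyl-tRNA synthetase; the read-out is not stated. Target: Methionyl-tRNA synthetase (putative), Leishmania donovani (UniProt E9BF75). The test concentration is not given. The values are filed as inhibition. Size under these conditions: about 68,000 compounds, about 24 of them at 50% or above in at least one test.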
Mtb heat-shock: 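Assay on Mycobacterium tuberculosis, filed only as a heat shock assay from Cornell; the read-out is not stated. The concentration is filed as 10 mM, unlikely as a test dose, so the dose is not known. Higher reads as stronger inhibition (inferred: compounds with an IC50 in retests scored well above the rest). Of about 69,000 compounds tested this way, about 930 (1.4%) reached 50% or more in at least one test.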

- O=C(O)C(F)(F)F.O=C(c1nc2c(o1)CN(CC1CC1)C2)N1CCCC1 | Mtb heat-shock: 6.719%
- CC(C)c1nccc([C@H]2C[C@@H]3CCN(Cc4ccco4)C[C@H]3O2)n1 | LdMetRS: 13.3%
- CCOCCCNc1nc(CS(=O)(=O)c2ccccc2)cs1 | LdMetRS: 13.19%; Mtb heat-shock: 6.81%
- O=C(c1ccc2c(c1)OCO2)N1CCN2C(=O)NC[C@H]2C1 | LdMetRS: 8.791%
- COCCc1noc(Cn2c(=O)[nH]c3ccccc32)n1 | LdMetRS: 14.92%; Mtb heat-shock: -3.605%
- [H][C@@]12CN(Cc3ccc(C)o3)C[C@]1([H])N(Cc1ccccn1)C(=O)O2 | Mtb heat-shock: -7.544%
- Cc1cccc(CN2CCN(C(=O)c3ccc(C)[nH]c3=O)CC2)c1 | LdMetRS: 10.31%; Mtb heat-shock: -0.4411%
- O=C(O)C(F)(F)F.O=C(O)C(F)(F)F.O=C(O)C(F)(F)F.c1cncc(CN2CCC3(COCCN(C4CCOCC4)C3)C2)c1 (stereo unspecified) | Mtb heat-shock: -18.23%
- CCCc1n[nH]c(C2CN(C(=O)CCCn3ccnc3C)CCO2)n1 (stereo unspecified) | LdMetRS: 3.226%; Mtb heat-shock: 3.64%
- CCCc1cc(C(=O)N(C)Cc2cccc3ncccc23)n(C)n1 | LdMetRS: 9.449%; Mtb heat-shock: -20.69%
- Cc1ccc(C(=O)N2CCC3(CC2)c2ccccc2[C@@H](N)[C@@H]3O)cc1F | LdMetRS: 7.833%; Mtb heat-shock: 7.134%
- NC(=O)c1ccc(OCCCN2CCC3(CC2)OCCCC3O)cc1 (stereo unspecified) | LdMetRS: 18.32%; Mtb heat-shock: 13.71%
- Cc1ccc(NC(=O)CC2NC(N3CCc4ccccc43)=NC2=O)cc1 (stereo unspecified) | LdMetRS: 15.63%; Mtb heat-shock: 11.81%
- Cc1cc2c(cc1CNC(Cc1cccs1)c1nccs1)OCO2.Cl (stereo unspecified) | Mtb heat-shock: 5.172%
- CCN1CCCC(O)(CN(C)Cc2ccccc2F)C1 (stereo unspecified) | LdMetRS: 13.68%; Mtb heat-shock: 15.79%
- CCOC(=O)[C@H]1[C@@H](O)C(=O)N(C)C12CCN(C(=O)CC(C)(C)C)CC2 | LdMetRS: 5.135%; Mtb heat-shock: -0.1297%
- Cc1ccc(-c2cc(C(=O)NCCN3CCCS3(=O)=O)[nH]n2)cc1 | LdMetRS: 6.316%; Mtb heat-shock: 9.619%
- CCOC(=O)c1ccc(CNC(=O)c2ccc(Cl)cn2)o1 | LdMetRS: 10.34%; Mtb heat-shock: 5.374%
- CC(=O)Nc1cccc(OCCNC(=O)N(C)Cc2ccco2)c1 | LdMetRS: 14.79%; Mtb heat-shock: -5.402%
- CCc1ncc(C(=O)N2CCN(c3nc(C)cc(OC)n3)CC2)s1 | LdMetRS: 18.21%; Mtb heat-shock: 0.07277%
- COCCOC1CCN(C(=O)NCc2cc(C)oc2C)CC1 | LdMetRS: 9.42%; Mtb heat-shock: 13.07%
- COc1ccc(NC(=O)COc2nn(C)c3nc(C)cc(C)c23)cn1 | LdMetRS: 11.17%; Mtb heat-shock: -9.903%
- Cc1cc(Cc2ccc(F)cc2)cc(C2CCCNC2)n1 (stereo unspecified) | LdMetRS: 4.127%; Mtb heat-shock: -15.83%
- CCOCC(=O)N1CCc2c(CN(C)C)nn(C(C)C)c2C1.O=C(O)C(F)(F)F | Mtb heat-shock: 0.8115%
- COc1ccccc1C(C)N1CCN(S(C)(=O)=O)CC1 (stereo unspecified) | LdMetRS: 5.072%; Mtb heat-shock: -14.38%
- Cc1cccc(CN2Cc3[nH]nc(COCc4nccs4)c3C2)n1.O=C(O)C(F)(F)F | Mtb heat-shock: 6.873%
- CC(=O)NCC(=O)N1CCC(C2CCN(Cc3ccc(Cl)cc3)C2)CC1 (stereo unspecified) | LdMetRS: 0.8065%; Mtb heat-shock: -19.68%
- CC(C)CCNC(=O)c1ccc2c(=O)n(-c3ccccc3)cnc2c1 | LdMetRS: 11.08%; Mtb heat-shock: 7.574%
- Cn1c(C(=O)N(CC(N)=O)C2CCCC2)cc(Cl)c1Cl | LdMetRS: 10.59%; Mtb heat-shock: -12.76%
- CN(C)C(=O)CS(=O)(=O)Cc1cc(Cl)c2c(c1)OCO2 | LdMetRS: 12.6%; Mtb heat-shock: 12.48%
- CN(CCO)Cc1nnc(C2CCN(C[C@H]3[C@@H]4CNC[C@@H]43)CC2)n1C | LdMetRS: 5.587%
- O=C(O)C(F)(F)F.O=C(O)C(F)(F)F.[H][C@]12CCC(=O)N(c3cccnc3)[C@@]1([H])CCN2c1ncc(F)cn1 | Mtb heat-shock: -2.215%
- CNC(=O)CN1CCOCC2(CCCN(Cc3ccoc3)C2)C1 (stereo unspecified) | LdMetRS: 7.372%; Mtb heat-shock: -1.221%
- Cn1cc(CNC2CCCOc3c(Cl)cccc32)cn1 (stereo unspecified) | LdMetRS: 10.76%; Mtb heat-shock: 12.93%
- CNC(=O)NCc1nn(-c2ccccc2)c2c1CCC2 | LdMetRS: 4.737%; Mtb heat-shock: -2.922%
- CC(CNCc1ccc2c(c1)n(C)c(=O)n2C)Oc1ccccn1 (stereo unspecified) | LdMetRS: 10.61%
- Cc1ccc(N2CCO[C@H]3CN(Cc4nccs4)C[C@H]32)nn1 | LdMetRS: 8%
- CC(C)C(=O)N1CCCC(c2cc(C(F)F)n3ncnc3n2)C1 (stereo unspecified) | LdMetRS: 2.397%
- [H][C@@]12CCC(=O)N(CCC3=CCCCC3)[C@]1([H])CCN(S(C)(=O)=O)C2 | Mtb heat-shock: -7.812%

Some entries from above, unchanged:

SMILES,LdMetRS,Mtb heat-shock
CCCc1cc(C(=O)N(C)Cc2cccc3ncccc23)n(C)n1,9.449%,-20.69%
CCOC(=O)c1ccc(CNC(=O)c2ccc(Cl)cn2)o1,10.34%,5.374%
CCCc1n[nH]c(C2CN(C(=O)CCCn3ccnc3C)CCO2)n1 (stereo unspecified),3.226%,3.64%

The values are deposited in ChEMBL (CHEMBL3988442, “University of Dundee, Small-Polar-MMV Screening Library” (2021)).